# Results: PMC11375011, “Inducible auto-phosphorylation regulates a widespread family of nucleotidyltransferase toxins” (Nature Communications, 2024)
# Results are given in words; binding and its absence hold for the method and conditions named. Binding can be weak; no strength is given.
# Biological target: MenT1 T39A (Mycobacterium tuberculosis) (UniProt L7N686)
# Assay: SEC; both purified
binder,measurement,value
"MenA1 wild type (protein, UniProt I6X8G2 2-68) AVSVAAQKLRLALDMYEVGEQMQRMRLGRERPNADVVEIEAAIDAWRMTRPGAEEGDSAGPTSTRFT",binding,binds
